The data set relates to sim3-GFP. Kind of data set: Quantitative LC-MS/MS of sim3-GFP interactome (SINC components). The following applies: protein enrichment in the sim3-GFP interactome (SINC components), SA-treated samples versus mock. Set-up: species or system Arabidopsis thaliana.

B1: AT1G63460 (protein, UniProt Q8LBU2 1-167, looked up)
Probable glutathione …: MATKEPESVYELSIEDAKGNNLALSQYKDKVLLIVNVASKCGMTNSNYTELNELYNRYKDKGLEILAFPCNQFGDEEPGTNDQITDFVCTRFKSEFPIFNKIEVNGENASPLYKFLKKGKWGIFGDDIQWNFAKFLVDKNGQAVQRYYPTTSPLTLEHDIKNLLNIS
Consider B1, for which the “Normalized Fold Change: SA vs Mock” value amounted to 19.55.

B2: AT3G58040 (protein, UniProt Q9M2P4 1-308, looked up)
E3 ubiquitin-protein ligase …: MAPGGSALKEVMESNSTGMDYEVKTAKVEVNNNKPTKPGSAGIGKYGIHSNNGVYELLECPVCTNLMYPPIHQCPNGHTLCSNCKLRVQNTCPTCRYELGNIRCLALEKVAESLEVPCRYQNLGCHDIFPYYSKLKHEQHCRFRPYTCPYAGSECSVTGDIPTLVVHLKDDHKVDMHDGCTFNHRYVKSNPHEVENATWMLTVFNCFGRQFCLHFEAFQLGMAPVYMAFLRFMGDENEAKKFSYSLEVGAHGRKLTWQGIPRSIRDSHRKVRDSQDGLIIPRNLALYFSGGDRQELKLRVTGRIWKEE
As for B2, the “Normalized Fold Change: SA vs Mock” value is 2.989.

B3: AT2G41740 (protein, UniProt O81644 1-976, looked up)
Villin-2: MSTKVLDPAFQGAGQKPGTEIWRIENFEAVPVPKSEHGKFYMGDTYIVLQTTQNKGGAYLFDIHFWIGKDTSQDEAGTAAVKTVELDAVLGGRAVQHREIQGHESDKFLSYFKPCIIPLEGGVASGFKTVEEEVFETRLYTCKGKRAIRLKQVPFARSSLNHDDVFILDTEEKIYQFNGANSNIQERAKALEVVQYLKDKYHEGTCDVAIVDDGKLDTESDSGAFWVLFGGFAPIGRKVANDDDIVPESTPPKLYCITDGKMEPIDGDLSKSMLENTKCYLLDCGAEIYIWVGRVTQVDERKAASQSAEEFLASENRPKATHVTRVIQGYESHSFKSNFDSWPSGSATPGNEEGRGKVAALLKQQGVGLKGIAKSAPVNEDIPPLLESGGKLEVWYVNGKVKTPLPKEDIGKLYSGDCYLVLYTYHSGERKDEYFLSCWFGKKSIPEDQDTAIRLANTMSNSLKGRPVQGRIYEGKEPPQFVALFQPMVVLKGGLSSGYKSSMGESESTDETYTPESIALVQVSGTGVHNNKAVQVETVATSLNSYECFLLQSGTSMFLWHGNQSTHEQLELATKVAEFLKPGITLKHAKEGTESSTFWFALGGKQNFTSKKASSETIRDPHLFSFAFNRGKFQVEEIYNFAQDDLLTEDIYFLDTHAEVFVWVGQCVEPKEKQTVFEIGQKYIDLAGSLEGLHPKVPIYKINEGNEPCFFTTYFSWDATKAIVQGNSFQKKASLLFGTHHVVEDKSNGGNQGLRQRAEALAALNSAFNSSSNRPAYSSQDRLNESHDGPRQRAEALAALSSAFNSSSSSTKSPPPPRPVGTSQASQRAAAVAALSQVLVAENKKSPDTSPTRRSTSSNPADDIPLTEAKDEEEASEVAGLEAKEEEEVSPAADETEAKQETEEQGDSEIQPSGATFTYEQLRAKSENPVTGIDFKRREAYLSEEEFQSVFGIEKEAFNNLPRWKQDLLKKKFDLF
Consider B3, for which the “Normalized Fold Change: SA vs Mock” value was 3.543.

B4: AT5G24520 (protein)
chain: MDNSAPDSLSRSETAVTYDSPYPLYAMAFSSLRSSSGHRIAVGSFLEDYNNRIDILSFDSDSMTVKPLPNLSFEHPYPPTKLMFSPPSLRRPSSGDLLASSGDFLRLWEINEDSSTVEPISVLNNSKTSEFCAPLTSFDWNDVEPKRLGTCSIDTTCTIWDIEKSVVETQLIAHDKEVHDIAWGEARVFASVSADGSVRIFDLRDKEHSTIIYESPQPDTPLLRLAWNKQDLRYMATILMDSNKVVILDIRSPTMPVAELERHQASVNAIAWAPQSCKHICSGGDDTQALIWELPTVAGPNGIDPMSVYSAGSEINQLQWSSSQPDWIGIAFANKMQLLRV
For the molecule B4, the “Normalized Fold Change: SA vs Mock” value was determined as 3.342.

B5: AT1G54100 (protein, UniProt Q9SYG7 1-508, looked up)
Aldehyde dehydrogenase family …: MGSANNEYEFLSEIGLTSHNLGSYVAGKWQANGPLVSTLNPANNQPIAQVVEASLEDYEQGLKACEEAAKIWMQVTAPKRGDIVRQIGDALRSKLDYLGRLLSLEMGKILAEGIGEVQEVIDMCDFAVGLSRQLNGSVIPSERPNHMMLEMWNPLGIVGVITAFNFPCAVLGWNACIALVCGNCVVWKGAPTTPLITIAMTKLVAEVLEKNNLPGAIFTAMCGGAEIGEAIAKDTRIPLVSFTGSSRVGSMVQQTVNARSGKTLLELSGNNAIIVMDDADIQLAARSVLFAAVGTAGQRCTTCRRLLLHESVYDKVLEQLLTSYKQVKIGNPLEKGTLLGPLHTPESKKNFEKGIEVIKSQGGKILTGGKAVEGEGNFVEPTIIEISADAAVVKEELFAPVLYVLKFKSFGEAVAINNSVPQGLSSSIFTRNPENIFRWIGPLGSDCGIVNVNIPTNGAEIGGAFGGEKATGGGREAGSDSWKQYMRRSTCTINYGNELPLAQGINFG
With B5, the “Normalized Fold Change: SA vs Mock” value was determined as 2.006.

B6: AT3G07990 (protein, UniProt Q9SFB5 21-459, looked up)
Serine carboxypeptidase-like …: APSSYVEEQLRDRISNLPGQPSNVDFRQYSGYVTVHEERGRALFYWLVESPLARDPKSRPLVLWLNGGPGCSSVAYGAAEEIGPFRVGSDGKTLHSKLYAWNKLANLLFLESPAGVGFSYSNTTSDLYTTGDQRTAEDSYIFLVNWFERFPQYKHREFYIVGESYAGHFVPQLSKLVHERNKGFKNPAINLKGFMVGNAVTDDYHDYIGTFEYWWNHGLISDSTYHQLKTACYSVSSQHPSMQCMVALRNAELEQGNIDPYSIFTKPCNSTVALKRFLKGRYPWMSRAYDPCTERYSNVYFNRLDVQKALHANVTRLSYPWKACSDIVGSYWDDSPLSMLPIYKELITAGLKIWVFSGDTDAVVPITATRYSVDALKLATITNWYPWYDHGKVGGWSQVYKGLTLVTVAGAGHEVPLHRPRQAFILFRSFLESKPMPMT
Consider B6, for which the “Normalized Fold Change: SA vs Mock” value turned out to be 5807.184.

B7: AT2G21470 (protein, UniProt Q9SJT1 2-700, looked up)
SUMO-activating enzyme …: ATQQQQSAIKGAKVLMVGAGGIGCELLKTLALSGFEDIHIIDMDTIEVSNLNRQFLFRRSHVGQSKAKVARDAVLRFRPNINIRSYHANVKNPEFDVDFFKQFDVVLNGLDNLDARRHVNRLCLAADVPLVESGTTGFLGQVTVHIKGKTECYECQTKPAPKTYPVCTITSTPTKFVHCIVWAKDLLFAKLFGDKNQDNDLNVRSNNSASSSKETEDVFERSEDEDIEQYGRKIYDHVFGSNIEAALSNEETWKNRRRPRPIYSKDVLPESLTQQNGSTQNCSVTDGDLMVSAMPSLGLKNPQELWGLTQNSLVFIEALKLFFAKRKKEIGHLTFDKDDQLAVEFVTAAANIRAESFGIPLHSLFEAKGIAGNIVHAVATTNAIIAGLIVIEAIKVLKKDVDKFRMTYCLEHPSKKLLLMPIEPYEPNPACYVCSETPLVLEINTRKSKLRDLVDKIVKTKLGMNLPLIMHGNSLLYEVGDDLDDIMVANYNANLEKYLSELPSPILNGSILTVEDLQQELSCKINVKHRFFSEILNPVLNSVWFLIILPSTFPKLFHFTESRNQDGLSLDIILGFSNVTIRRVLTMFETGRRLTHPLLILFCHREEFDEEKEPEGMVLSGWTPSPATNGESASTSNNENPVDVTESSSGSEPASKKRRLSETEASNHKKETENVESEDDDIMEVENPMMVSKKKIRVE
As for B7, the “Normalized Fold Change: SA vs Mock” value is given as 5.817.

B8: AT1G76680 (protein, UniProt Q8LAH7 1-372, looked up)
12-oxophytodienoate reductase …: MENGEAKQSVPLLTPYKMGRFNLSHRVVLAPLTRQRSYGNVPQPHAAIYYSQRTTPGGFLITEATGVSDTAQGYQDTPGIWTKEHVEAWKPIVDAVHAKGGIFFCQIWHVGRVSNSGFQPNGKAPISCSDKPLMPQIRSNGIDEALFTPPRRLGIEEIPGIVNDFRLAARNAMEAGFDGVEIHGANGYLIDQFMKDTVNDRTDEYGGSLQNRCKFPLEIVDAVAKEIGPDRVGIRLSPFADYMESGDTNPGALGLYMAESLNKYGILYCHVIEARMKTMGEVHACPHTLMPMRKAFKGTFISAGGFTREDGNEAVSKGRTDLVAYGRWFLANPDLPKRFQVDAPLNKYDRPTFYTSDPVVGYTDYPFLESTA
As to B8, the “Normalized Fold Change: SA vs Mock” value is 4111.7295.

For the origin of these results see patent publication US20230227838A1, “ENHANCED CELL SURVIVAL AGAINST BIOTIC AND ABIOTIC STRESSES THROUGH SALICYLICK ACID-INDUCED NPR1 CONDENSATES” (priority 2020, published 2023).
